Measured values as given in patent US20250339817A1, “A PROCESS FOR THE NITRIC OXIDE ABATEMENT THROUGH BIOLOGICAL TREATMENTS” (FUNDACIÓ EURECAT, priority 2022, published 2025).

Tests used:
[1] = Nitric oxide (NO) absorption with pure NAPs (batch tests); type: physicochemical; conditions: pure NAP, increasing molarity
Procedure: Batch tests with pure NAPs were performed in 120 mL glass amber vials with an initial concentration of NO between 4500 and 5100 ppmv and different amounts of NAPs (DES, SO, HTX, HNO and HEX). For this experiment each NAP was added to a vial containing NO. Each NAP was tested alone. The results were compared with respect to a blank containing deionized water instead of NAP. All experiments were carried out at a temperature of 25° C. and agitation of 100 rpm in an incubator, five replicates were made per point. Gas phase analysis (NO and NO2) was performed at the beginning of the experiment and at the end (1 hour).
NO and NO2 concentrations in the gas phase were measured by Fourier Transform Infrared Spectroscopy (FTIR) from an aliquot of 1 mL (PerkinElmer Inc., Spain). The NO removal efficiency in the tests was calculated from the difference in NO concentration from the beginning and end of each test. Nitrogen compounds and chemical oxygen demand (COD) were analyzed in liquid samples after centrifuged at 15,000 rpm and filtration (0.22 μm) to separate the NAP found in the sample. Nitrite and nitrate were measured using Hach Lange kits (LCK342 and LCK 339, respectively, Hach Lange, Germany). COD was measured using Hach Lange kits (LCK114 and LCK 214, respectively, Hach Lange, Germany).

[2] = Chemical absorption and biological reduction (CABR) batch tests; conditions: liquid phase, 1 hour and 24 hours
[3] = Mass transfer gas-to-liquid batch tests in a three-phase system (CO2/NO/Aqueous/NAP), NO; type: physicochemical; conditions: phosphate buffer pH 8, 10% v/v NAP
Procedure: Mass transfer gas-to-liquid batch tests with a mixture of gases with CO2 and NO were performed to determine the mass transfer rate and selectivity of these gases in the presence of NAP and aqueous phase. The results were compared with respect to blank (water or phosphate buffer at pH 8 without NAP). The initial samples were filled with CO2 to reach a peak transmittance area between 8010 and 8940 cm^−1 and NO to reach a peak of transmittance area between 11 and 14 cm^−1, then 10 mL of each NAP (HTX, HNO and HEX) was injected. Tests were performed with a phosphate buffer at pH 8 at a 10% v/v ratio of NAP/aqueous phase. All experiments were performed in 500 mL amber glass bottles previously prepared in a glove box to maintain an inert atmosphere and carried out per at least triplicate at a temperature of 25° C. and 100 rpm orbital shaking in an incubator. CO2 and NO in the gas phase were measured at the beginning and at the end of the test. Also, the liquid phase was monitored for pH, nitrite (NO2^−) and nitrate (NO3^−) at the end of each test.
NO and CO2 peak area in the gas phase were measured by Fourier Transform Infrared Spectroscopy (FTIR). In these experiments the peak area was analyzed and not the concentration. Therefore, the performance of the tests will be given in percent (%) area reduction, which is defined in Eq 1. Nitrogen compounds were analyzed in liquid samples after being centrifuged at 15,000 rpm and filtration (0.22 μm) to separate the NAP found in the sample. NO2^− and NO3^− were measured using Hach Lange kits (LCK342 and LCK 339, respectively, Hach Lange, Germany).
The initial area (Areainitial) is a quantitative measure of the transmittance at certain given wavelengths (NO=1730-1930 cm^−1; CO2=2230-2400 cm^−1) and correlates the presence of the compound in the sample at time=0 h. The final area (Areafinal) is a quantitative measure of the transmittance at the given wavelengths (NO=between 1730-1930 cm^−1; CO2=2230-2400 cm-1) and correlates with the presence of the compound in the sample at time=1 h.

biomass from the SBR = assay: Long-term biodegradability test (ultimate BOD, OECD 301 F)

| Structure (SMILES) | moles of absorber added to reach a similar NO removal [1] [mol] | Accumulation of nitrite and nitrate in the system [2] | concentration of nitrogenous compounds (NO2− and NO3−) in the liquid phase [3] [N-mg/L] | Degradation in the 28 days of the test (biomass from the SBR) [%] |
| --- | --- | --- | --- | --- |
| CCCCCCCCCCCCCCCC [HEX, n-hexadecane] | 0.068 | non-accumulation | 10±1 | – |
| C[SiH](O[Si](C)(C)C)O[Si](C)(C)C [HTX, 1,1,1,3,5,5,5-heptamethyl-trisiloxane] | 0.076 | – | 14±2 | 7 |
| CC(CC(C)(C)C)CC(C)(C)CC(C)(C)C (stereo not drawn) [HNO, 2,2,4,4,6,8,8-heptamethylnonane] | 0.070 | non-accumulation | 18±2 | – |
